# Experimental data reported in patent publication US20250235399A1, “METHODS OF PREPARING CARRIER-BASED DRY POWDERS FOR INHALATION” (Board of Regents, The University of Texas System, priority 2022, published 2025).
# At least one structure is not confirmed: it was looked up by name or label, or the drawing left a doubt.
# Key:
# [1] = Particle size of micronized budesonide, Example 5; assay type: physicochemical; settings: after jet milling, 3.7 bar grinding, 4.0 bar injector
# [2] = Particle size of budesonide blend starting materials (HELOS/RODOS laser diffraction); assay type: physicochemical; settings: RODOS laser diffraction, 3 bar, 50% rotation
# Protocol: Particle size distribution of alpha-lactose monohydrate, magnesium stearate and budesonide were analyzed using a laser diffractometer (Sympatec, Clausthal-Zellerfeld, Germany). […] About 0.5 g of each component was carefully loaded on the turntable of the vibratory feeding module. Samples were dispersed at 3 bar and 50% rotation (FIG. 11). Data was acquired using Windox software (Sympatec, Clausthal-Zellerfeld, Germany) and volume-based size distribution was calculated using Fraunhofer theory.
# Table 6 lists the particle size distribution for starting materials as determined by laser diffraction. Budesonide was confirmed to be sufficiently micronized (e.g. less than 5 μm). Magnesium stearate and lactose size distributions were within the size ranges provided by manufacturers.
smiles,measurement,setting,value
"CCCC1O[C@@H]2C[C@H]3[C@@H]4CCC5=CC(=O)C=C[C@]5(C)[C@H]4[C@@H](O)C[C@]3(C)[C@]2(C(=O)CO)O1 (stereo partly shown) [Micronized budesonide, budesonide, reference compound]",dv50,[1],1.96 μm
same,D10,[2],0.69 μm
same,D50,[2],1.68 μm
same,D90,[2],4.39 μm
